Data taken from article PMC12686931.
Where two headings read alike, the source gives them in different places. These are yes or no findings as the source states them, for the method shown. In cells and extracts the contact can be indirect. Some results given as binding are weak or reduced against the parent protein; the word gives no strength. Values belong to the molecule of their own block, whether it stands above or below them.

Sequences of proteins named here, by UniProt entry; tags and fusion partners are left off.
UniProt Q62167: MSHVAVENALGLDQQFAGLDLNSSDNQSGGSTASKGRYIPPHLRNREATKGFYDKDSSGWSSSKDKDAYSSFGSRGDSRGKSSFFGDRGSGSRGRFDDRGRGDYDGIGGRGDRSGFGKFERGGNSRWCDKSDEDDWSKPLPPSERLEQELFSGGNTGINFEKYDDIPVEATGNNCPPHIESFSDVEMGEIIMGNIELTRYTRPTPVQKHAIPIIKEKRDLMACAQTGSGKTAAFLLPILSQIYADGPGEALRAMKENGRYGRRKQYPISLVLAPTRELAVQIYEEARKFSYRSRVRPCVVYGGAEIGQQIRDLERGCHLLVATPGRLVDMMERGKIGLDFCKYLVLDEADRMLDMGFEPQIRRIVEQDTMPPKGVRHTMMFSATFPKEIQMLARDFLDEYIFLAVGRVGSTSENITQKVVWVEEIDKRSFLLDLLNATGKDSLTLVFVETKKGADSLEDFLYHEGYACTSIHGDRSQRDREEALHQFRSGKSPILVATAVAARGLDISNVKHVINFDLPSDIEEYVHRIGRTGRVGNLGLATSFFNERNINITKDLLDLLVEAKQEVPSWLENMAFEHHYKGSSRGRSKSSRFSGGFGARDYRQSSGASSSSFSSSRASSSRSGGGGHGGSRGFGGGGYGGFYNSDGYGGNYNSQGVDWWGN
UniProt Q9JMK2: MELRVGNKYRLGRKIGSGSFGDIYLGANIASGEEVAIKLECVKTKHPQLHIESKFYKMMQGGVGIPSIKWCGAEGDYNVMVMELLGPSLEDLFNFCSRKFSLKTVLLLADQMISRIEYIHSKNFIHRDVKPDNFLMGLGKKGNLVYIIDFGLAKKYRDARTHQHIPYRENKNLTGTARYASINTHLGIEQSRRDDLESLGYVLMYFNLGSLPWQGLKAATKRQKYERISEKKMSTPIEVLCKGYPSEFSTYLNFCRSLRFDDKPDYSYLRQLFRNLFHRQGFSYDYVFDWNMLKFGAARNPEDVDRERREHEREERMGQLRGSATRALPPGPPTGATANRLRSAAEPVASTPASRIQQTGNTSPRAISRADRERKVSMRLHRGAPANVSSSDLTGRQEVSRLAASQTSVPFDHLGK
UniProt O00571: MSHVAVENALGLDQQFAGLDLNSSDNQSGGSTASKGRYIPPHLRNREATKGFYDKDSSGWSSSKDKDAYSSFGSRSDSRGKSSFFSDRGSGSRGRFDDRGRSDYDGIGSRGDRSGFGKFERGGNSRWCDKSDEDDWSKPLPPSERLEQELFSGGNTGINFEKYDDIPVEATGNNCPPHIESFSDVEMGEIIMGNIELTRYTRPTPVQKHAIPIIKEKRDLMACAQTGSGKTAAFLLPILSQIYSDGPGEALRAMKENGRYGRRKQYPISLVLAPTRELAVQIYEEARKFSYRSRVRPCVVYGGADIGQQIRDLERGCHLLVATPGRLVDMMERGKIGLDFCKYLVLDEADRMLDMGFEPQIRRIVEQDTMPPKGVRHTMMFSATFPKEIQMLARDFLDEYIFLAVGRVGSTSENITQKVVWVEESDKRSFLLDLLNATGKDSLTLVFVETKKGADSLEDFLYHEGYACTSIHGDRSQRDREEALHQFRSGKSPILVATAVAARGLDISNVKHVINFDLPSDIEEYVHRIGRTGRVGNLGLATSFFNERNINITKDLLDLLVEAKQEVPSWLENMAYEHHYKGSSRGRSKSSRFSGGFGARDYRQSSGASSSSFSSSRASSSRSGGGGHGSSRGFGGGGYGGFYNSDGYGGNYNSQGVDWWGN

Experiments:
Test in all cases: co-IP; endogenous proteins in MDA-MB-231 and 4T1 lysates; primary antibodies coupled to protein A/G beads, overnight at 4 °C, immunoblot; for DDX3X-CK1ε control and ZMYND8-knockout cells
[1] = target: DEAD-box helicase 3 X-linked (DDX3X), endogenous, mouse (mouse (endogenous in 4T1)) (UniProt Q62167)
[2] = target: T1, Zinc finger MYND-type containing 8 (ZMYND8), endogenous, human (human (endogenous in MDA-MB-231)) (UniProt Q9ULU4)
T1 sequence: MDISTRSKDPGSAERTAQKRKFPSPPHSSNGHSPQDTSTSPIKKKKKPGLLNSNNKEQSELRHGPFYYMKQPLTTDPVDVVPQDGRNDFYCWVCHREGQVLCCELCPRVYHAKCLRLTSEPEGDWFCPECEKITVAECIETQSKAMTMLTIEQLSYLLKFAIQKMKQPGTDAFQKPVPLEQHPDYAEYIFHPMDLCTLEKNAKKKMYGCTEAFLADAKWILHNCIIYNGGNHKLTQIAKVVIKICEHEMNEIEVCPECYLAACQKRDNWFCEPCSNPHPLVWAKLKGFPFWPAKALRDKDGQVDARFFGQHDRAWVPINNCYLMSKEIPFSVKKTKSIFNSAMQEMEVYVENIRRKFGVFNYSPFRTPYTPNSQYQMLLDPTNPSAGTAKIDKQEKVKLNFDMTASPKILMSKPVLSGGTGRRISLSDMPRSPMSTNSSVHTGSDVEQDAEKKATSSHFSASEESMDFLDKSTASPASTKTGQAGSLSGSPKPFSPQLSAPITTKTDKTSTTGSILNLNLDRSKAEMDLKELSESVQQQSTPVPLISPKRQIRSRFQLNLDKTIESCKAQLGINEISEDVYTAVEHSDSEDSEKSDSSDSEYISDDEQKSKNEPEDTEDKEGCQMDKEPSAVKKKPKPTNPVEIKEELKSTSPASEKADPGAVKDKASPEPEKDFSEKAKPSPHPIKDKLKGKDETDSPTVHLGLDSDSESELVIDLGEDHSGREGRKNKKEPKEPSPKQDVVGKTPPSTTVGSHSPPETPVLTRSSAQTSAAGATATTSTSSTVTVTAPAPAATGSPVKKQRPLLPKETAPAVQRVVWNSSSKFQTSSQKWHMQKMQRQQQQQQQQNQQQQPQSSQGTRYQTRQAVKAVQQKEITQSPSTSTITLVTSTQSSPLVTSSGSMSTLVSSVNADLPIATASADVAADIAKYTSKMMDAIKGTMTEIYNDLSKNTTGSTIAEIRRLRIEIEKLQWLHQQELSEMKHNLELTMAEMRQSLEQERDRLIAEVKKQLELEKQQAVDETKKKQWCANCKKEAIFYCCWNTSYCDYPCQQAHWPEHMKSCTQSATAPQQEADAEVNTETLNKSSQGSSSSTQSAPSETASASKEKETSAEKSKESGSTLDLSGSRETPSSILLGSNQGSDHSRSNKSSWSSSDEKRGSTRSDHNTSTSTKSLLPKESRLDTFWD

[3] = target: T2, Zinc finger MYND-type containing 8 (ZMYND8), endogenous, mouse (mouse (endogenous in 4T1)) (UniProt A2A484)
T2 sequence: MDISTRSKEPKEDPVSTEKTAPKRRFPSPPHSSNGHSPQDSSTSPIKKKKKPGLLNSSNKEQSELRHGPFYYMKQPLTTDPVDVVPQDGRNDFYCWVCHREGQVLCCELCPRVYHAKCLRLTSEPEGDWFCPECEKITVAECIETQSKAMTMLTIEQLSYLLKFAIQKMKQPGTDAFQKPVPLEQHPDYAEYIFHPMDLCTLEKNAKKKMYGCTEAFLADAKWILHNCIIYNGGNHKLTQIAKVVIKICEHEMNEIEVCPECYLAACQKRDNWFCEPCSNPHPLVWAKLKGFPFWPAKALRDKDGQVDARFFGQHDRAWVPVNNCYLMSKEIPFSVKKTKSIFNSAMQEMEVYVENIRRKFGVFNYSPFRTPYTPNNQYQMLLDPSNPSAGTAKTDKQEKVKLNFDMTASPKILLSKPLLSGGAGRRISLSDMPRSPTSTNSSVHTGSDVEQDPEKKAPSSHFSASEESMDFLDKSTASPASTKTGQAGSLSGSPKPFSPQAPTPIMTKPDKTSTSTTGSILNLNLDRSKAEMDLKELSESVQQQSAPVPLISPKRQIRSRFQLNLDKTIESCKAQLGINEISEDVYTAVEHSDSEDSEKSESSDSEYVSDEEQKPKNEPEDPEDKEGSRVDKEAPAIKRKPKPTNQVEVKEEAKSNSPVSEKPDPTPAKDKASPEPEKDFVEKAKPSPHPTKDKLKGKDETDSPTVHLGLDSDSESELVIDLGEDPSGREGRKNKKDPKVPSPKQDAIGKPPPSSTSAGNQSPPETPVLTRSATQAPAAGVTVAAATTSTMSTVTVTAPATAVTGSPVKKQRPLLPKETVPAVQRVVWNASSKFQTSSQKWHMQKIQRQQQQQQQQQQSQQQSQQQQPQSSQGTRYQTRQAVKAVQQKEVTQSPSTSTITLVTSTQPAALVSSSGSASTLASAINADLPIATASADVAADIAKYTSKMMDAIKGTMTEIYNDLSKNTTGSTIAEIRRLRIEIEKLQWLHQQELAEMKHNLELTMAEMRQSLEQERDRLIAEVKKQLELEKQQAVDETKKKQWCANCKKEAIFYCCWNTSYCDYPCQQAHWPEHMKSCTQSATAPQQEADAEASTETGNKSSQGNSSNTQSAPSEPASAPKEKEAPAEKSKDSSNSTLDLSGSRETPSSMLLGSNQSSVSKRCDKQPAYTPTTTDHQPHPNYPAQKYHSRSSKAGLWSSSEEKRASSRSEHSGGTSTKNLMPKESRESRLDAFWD

[4] = target: T2, Zinc finger MYND-type containing 8 (ZMYND8), endogenous, mouse (mouse (endogenous in 4T1)); remark: listed apart in the source

- binding [1]: binds
Molecule: Casein kinase 1 epsilon (CK1ε), endogenous, mouse (from UniProt Q9JMK2 1-416) (enzyme)

- binding [2]: binds
Molecule: DEAD-box helicase 3 X-linked (DDX3X), endogenous, human (from UniProt O00571 1-662)

Continued, molecule first:

Molecule: DEAD-box helicase 3 X-linked (DDX3X), endogenous, mouse (from UniProt Q62167 1-662)
- binding [3]: binds

B1: OTU domain-containing protein 4 (OTUD4), endogenous, mouse (enzyme, UniProt B2RRE7 1-1107)
chain: MEAAVGAPDGVDQGGVGPLEDETPMDAYLRKLGLYRKLVAKDGSCLFRAVAEQVLHSQSRHVEVRMACIRYLRENREKFEAFIEGSFEEYLKRLENPQEWVGQVEISALSLMYRKDFVIYQEPNVSPSHVTENNFPEKVLLCFSNGNHYDIVYPITYKDSSAMCQSLLYELLYEKVFKTDVSKIMMGLEASEVAEESNSEISDSEDDSCKSKSTAATDVNGFKPSGSENPKNNGNSADLPLSRKVLKSLNPAVYRNVEYEIWLKSKQAQQKRDYSIAAGLQYEVGDKCHQVRLDHNGKLSNADIHGVHSENGLVLSEELGKKHTPKNLKPPPPESWNTVSGKKMKKPNSGQNFHSDTDYRGPKNLNKPIKAPSALPPRLQHPSSGVRQHAFSSHSTGSQSQKSSSEHKNLSRMPSQITRKPDRERAEDFDHVSRESYYFGLSPEERREKQAIEESRLLYEIQNRDEQAFPALSSSSVSQSPSQNSNACVPRKSSHARDRKGSMRRADAEERKDKDSLRGHTHVDKKPEPSTLEISDDKCTRVSSPSKSKKECPSPVEQKPAEHIPLSNPAPLLVSPEVHLTPAVPSLPATVPAWPSEPTTFGPTGVPAQIPILSVTQTTGPDAAVSQAHLTPSPVPVSIQAVNQPLMPLPQTMSLYQDPLYPGFPCSEKGDRAIAPPYSLCQTGEDLPKDKNILRFFFNLGVKAYSCPMWAPHSYLYPLHQAYMAACRMYPKVPVPVYPQNTWFQEAPPAQSESDCPCTDAHYSLHPEASVNGQMPQAEMGPPAFASPLVIPPSQVSEGHGQLSYQPELESENPGQLLHAEYEESLSGKNMYPQQSFGPNPFLGPVPIAPPFFPHVWYGYPFQGFVENPVMRQNIVLPPDDKGELDLPLENLDLSKECDSVSAVDEFPDARVEGAHSLSAASVSSKHEGRVEQSSQTRKADIDLASGSSAVEGKGHPPTQILNREREPGSAEPEPKRTIQSLKEKPEKVKDPKTAADVVSPGANSVDRLQRPKEESSEDENEVSNILRSGRSKQFYNQTYGSRKYKSDWGSSGRGGYQHVRGEESWKGQPNRSRDEGYQYHRHVRGRPYRGDRRRSGMGDGHRGQHT
- binding [4]: binds
